Source: doi:10.1101/2023.03.30.534706
No constants are given. Whether binding was seen depends on the method and setting. Binding can be weak; no strength is given. Where a sequence is shown, tags or fusion partners need not be part of it.

Target: T1, C. jejuni PpfC fused at the N-terminus to a Strep-tag (apo-PpfC-Strep) (C. jejuni NCTC 11168) (UniProt Q9PI08)
T1 sequence: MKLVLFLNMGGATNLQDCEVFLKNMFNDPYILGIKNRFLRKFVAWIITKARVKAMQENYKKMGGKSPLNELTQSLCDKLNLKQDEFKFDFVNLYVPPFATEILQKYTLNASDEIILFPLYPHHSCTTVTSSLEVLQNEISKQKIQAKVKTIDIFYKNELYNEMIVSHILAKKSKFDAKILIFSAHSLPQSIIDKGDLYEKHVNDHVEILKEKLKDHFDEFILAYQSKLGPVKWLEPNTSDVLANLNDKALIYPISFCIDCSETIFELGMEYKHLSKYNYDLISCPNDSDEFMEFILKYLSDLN
Assay: pull-down

C. jejuni CgdH2 linked at the C-terminus to a His-tag (apo-CgdH2-His) (from UniProt Q0PBE7)
binding: binds
